Among the data in publication PMC4895385, “The ubiquitin E3 ligase TRAF6 exacerbates pathological cardiac hypertrophy via TAK1-dependent signalling” (Nature Communications, 2016) are binding values, retold here.

In experiment [1] the target is T1, Traf6 (C70A) mutant (rat, expressed from adenovirus AdTraf6 (C70A)) (rat) (UniProt B5DF45).
T1 sequence: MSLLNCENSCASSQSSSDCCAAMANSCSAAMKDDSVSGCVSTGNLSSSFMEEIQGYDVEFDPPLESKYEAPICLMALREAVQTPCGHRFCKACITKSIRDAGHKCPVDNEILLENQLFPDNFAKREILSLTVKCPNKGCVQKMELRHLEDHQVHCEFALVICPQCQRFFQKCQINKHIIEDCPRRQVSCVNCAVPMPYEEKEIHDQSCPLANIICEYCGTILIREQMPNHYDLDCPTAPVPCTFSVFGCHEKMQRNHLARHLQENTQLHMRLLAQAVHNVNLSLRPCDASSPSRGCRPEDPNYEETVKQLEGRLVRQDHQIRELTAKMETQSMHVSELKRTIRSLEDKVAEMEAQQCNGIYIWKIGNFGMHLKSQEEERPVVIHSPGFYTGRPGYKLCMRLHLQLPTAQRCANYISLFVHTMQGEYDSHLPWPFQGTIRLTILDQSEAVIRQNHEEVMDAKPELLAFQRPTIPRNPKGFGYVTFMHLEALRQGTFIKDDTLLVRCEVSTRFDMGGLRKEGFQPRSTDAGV
Put plainly: co-IP; neonatal rat cardiomyocytes infected with the indicated adenovirus, Ang II for 15 min with or without NAC; IP with anti-TRAF6 antibody, blot with anti-TAB2 or anti-TAK1.

In experiment [2] the target is T2, Traf6 (rat, expressed from adenovirus AdTraf6) (rat) (UniProt B5DF45).
T2 sequence: T1 sequence with A70C
The experiment is described as above.

Numbering of substitutions follows the chain as printed. Results are given in words; binding and its absence hold for the method and conditions named. Binding seen in cells or lysates may run through a third protein. Some binding calls cover weakened binding; strength is not graded here.

B1: Tab2 (protein, UniProt Q5U303 1-693)
chain: MAQGSHQIDFQVLHDLRQKFPEVPEVVVSRCMLQNNNNLDACCAVLSQESTRYLYGEGDLNFSDESGISGLRNHMTSLNLDLQSQNVYHHGREGSRVNGSRTLTHSVSDGQLQGGQSNNELFQQEPQTAPAQVPQGFNVFGMPSTSGASNSTPHLGFHLGSKGTSNLSQQTPRFNPIMVTLAPNIQTGRSTPTSLHIHGVPPPVLNSPQGNSIYIRPYITTPSGAARQTQQHSGWVSQFNPVNPQQAYQPSQPGPWTTYPASNPLPHTSTQQPNQQGHQTSHVYMPISSPTTPQPPTVHSSASSQSSAHSQYNIQNISTGPRKNQIEIKLEPPQRNSSSKLRSSGPRTASTSSLVNSQTLNRNQPTVYIAASPPSTDEMISRSQPKVYISANASTGDEQGMRNQPTLFISTNSGASAASRNMSGQVSMGPAFIHHHPPKSRVLGGNSAASPRVVVTQPNTKYTFKITVSPNKPPAVSPGVVSPTFELTNLLNHPDHYVETETIQHLTDPTLAHVDRVSEARKLSMGSDDAAYTQALLVHQKARMERLQRELEMQKKKLDKLKSEVNEMENSLTRRRLKRSNSMSQIPSLEEMQQLRSCNRQLQIDIDCLTKEIDLFQARGPHFNPSAIHNFYDNIGFVGPVPPKPKDQRSTIKAPKTQDTEDEEGAQWNCTACTFLNHPALIRCEQCEMPRHF
Take B1: the binding result is listed as “no binding” in experiment [1] and “binds” in experiment [2].

B2: Tak1 (transforming growth factor beta-activated kinase 1) (protein, UniProt P0C8E4 1-606)
chain: MSTASAASSSSSSSASEMIEAPSQVLNFEEIDYKEIEVEEVVGRGAFGVVCKAKWRAKDVAIKQIESESERKAFIVELRQLSRVNHPNIVKLYGACLNPVCLVMEYAEGGSLYNVLHGAEPLPYYTAAHAMSWCLQCSQGVAYLHSMQPKALIHRDLKPPNLLLVAGGTVLKICDFGTACDIQTHMTNNKGSAAWMAPEVFEGSNYSEKCDVFSWGIILWEVITRRKPFDEIGGPAFRIMWAVHNGTRPPLIKNLPKPIESLMTRCWSKDPSQRPSMEEIVKIMTHLMRYFPGADEPLQYPCQYSDEGQSNSATSTGSFMDIASTNTSNKSDTNMEQVPATNDTIKRLESKLLKNQAKQQSDSGRLSLGASRGSSVESLPPTSEGKRMSADMSEIEARIVATTAYTKPKRGHRKTASFGNILDVPEIVISGNGQPRRRSIQDLTVTGTEPGQVSSRSSSPSVRMITTSGPTSEKPARSLPWTPDDSTDTNGSDNSIPMAYLTLDHQLQPLAPCPNSKESMAVFEQHCKMAQEYMKVQTEIALLLQRKQELVAELDQDEKDQQNTSRLVQEHKKLLDENKSLSTYYQQCKKQLEVIRSQQQKRQGTS
As to B2, the binding entry in experiment [1] is “no binding”; in experiment [2], “binds”.
